For 2 sequences, binding result and Kd results are on record in PMC12047440, “LINE-1 ribonucleoprotein condensates bind DNA to enable nuclear entry during mitosis” (Science Advances, 2024).

The pKd is the negative decadic logarithm of the Kd, by convention in mol/L.

pKd: −log10 of the molar value. For part of these data: The comparison behind a weaker result is the experiment's own reference, which may not be listed here. For part of these data: Protein sequences can lack the tags named with them. For part of these data: For at least one entry, the source does not settle the construct or the ends of the probe.

In data set [1] the target is His-TEV-ORF1p (Homo sapiens) (UniProt Q9UN81). Nature of the data set: fluorescence anisotropy. As to conditions: slight Kd increase vs WT, P=0.018; Anisotropy: 20 mM Hepes pH 7.5, 50 mM KCl, 1 mM MgCl2, 1 mM DTT, 1 nM 6-FAM oligo, temperature not stated; recombinant protein; protein details: uncleaved N-terminal His-TEV, C-terminal ybbR; label: 5' 6-FAM (anisotropy). (In fluorescence polarisation assays a small probe gives low polarisation when free and higher when bound to something large.)

Data set [2] deals with T1, ORF1p WT (Homo sapiens) (UniProt Q9UN81).
T1 sequence: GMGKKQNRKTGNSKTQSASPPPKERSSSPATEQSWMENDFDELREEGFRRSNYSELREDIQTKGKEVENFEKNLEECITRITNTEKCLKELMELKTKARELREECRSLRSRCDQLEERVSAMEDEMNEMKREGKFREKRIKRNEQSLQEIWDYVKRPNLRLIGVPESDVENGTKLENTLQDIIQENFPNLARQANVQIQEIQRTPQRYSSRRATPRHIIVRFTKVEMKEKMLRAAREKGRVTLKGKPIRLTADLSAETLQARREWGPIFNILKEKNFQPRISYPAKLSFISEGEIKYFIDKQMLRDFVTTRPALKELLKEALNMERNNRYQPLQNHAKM
The data set can be described thus: fluorescence anisotropy. As to conditions: slightly reduced affinity, Anisotropy: 20 mM Hepes pH 7.5, 50 mM KCl, 1 mM MgCl2, 1 mM DTT, 1 nM 6-FAM oligo, temperature not stated, recombinant protein, protein details: tag removed, N-terminal G left, label: 5' 6-FAM (anisotropy).

For data set [3], the target named is T2, ΔStammer-ORF1p del91-93 (Homo sapiens) (UniProt Q9UN81).
T2 sequence: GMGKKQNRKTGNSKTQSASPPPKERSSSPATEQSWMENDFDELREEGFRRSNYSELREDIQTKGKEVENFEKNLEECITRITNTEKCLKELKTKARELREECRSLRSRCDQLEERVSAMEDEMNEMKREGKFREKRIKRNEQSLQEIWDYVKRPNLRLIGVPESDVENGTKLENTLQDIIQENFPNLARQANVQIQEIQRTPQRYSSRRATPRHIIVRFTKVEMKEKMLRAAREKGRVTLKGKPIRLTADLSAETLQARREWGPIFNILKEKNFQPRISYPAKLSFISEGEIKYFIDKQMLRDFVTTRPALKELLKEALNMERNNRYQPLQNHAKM
Nature of the data set: fluorescence anisotropy. As to conditions: slight Kd increase vs WT, P=0.041; Anisotropy: 20 mM Hepes pH 7.5, 50 mM KCl, 1 mM MgCl2, 1 mM DTT, 1 nM 6-FAM oligo, temperature not stated; recombinant protein; protein details: tag removed by TEV, N-terminal G left; label: 5' 6-FAM (anisotropy).

The target in data set [4] is T1, ORF1p WT (Homo sapiens). Nature of the data set: competition (fluorescence anisotropy). As to conditions: apparent Kd, DNA curtains: 50, 150 or 300 mM KCl, RNP premix 1 min at room temperature, recombinant protein, protein details: tag removed, N-terminal G left.

With “ACCAUCAUCAAAGACCAAAAGUAGAUAAAA [30 nt RNA]”, the binding result (in data set [1]; with ORF1p WT (Homo sapiens) [2] (150 mM KCl); with ORF1p WT (Homo sapiens) [2] (300 mM KCl); in data set [3]) was “binds more weakly” throughout. Moreover, in the data set with ORF1p WT (Homo sapiens) [4] (ORF1p presaturated with 100 nM 30 bp dsDNA, label: 5' 6-FAM (anisotropy)), the pKd was 7.02.

Turning to “ACCATCATCAAAGACCAAAAGTAGATAAAA (double strand) [30 bp dsDNA]”, the pKd with ORF1p WT (Homo sapiens) [4] (ORF1p presaturated with 100 nM 30 nt RNA, label: 5' 6-FAM on strand 1 (anisotropy)) is 6.19.
